From paper PMC9876383
No constants are given. Whether binding was seen depends on the method and setting. Binding seen in cells or lysates may run through a third protein. Some binding calls cover weakened binding; strength is not graded here. Sequences can lack the tags named with a protein.

Target: T1, FLAG-tagged NDP52 (nuclear dot protein 52 / calcium binding and coiled-coil domain protein, CALCOCO2) (UniProt Q13137)
T1 sequence: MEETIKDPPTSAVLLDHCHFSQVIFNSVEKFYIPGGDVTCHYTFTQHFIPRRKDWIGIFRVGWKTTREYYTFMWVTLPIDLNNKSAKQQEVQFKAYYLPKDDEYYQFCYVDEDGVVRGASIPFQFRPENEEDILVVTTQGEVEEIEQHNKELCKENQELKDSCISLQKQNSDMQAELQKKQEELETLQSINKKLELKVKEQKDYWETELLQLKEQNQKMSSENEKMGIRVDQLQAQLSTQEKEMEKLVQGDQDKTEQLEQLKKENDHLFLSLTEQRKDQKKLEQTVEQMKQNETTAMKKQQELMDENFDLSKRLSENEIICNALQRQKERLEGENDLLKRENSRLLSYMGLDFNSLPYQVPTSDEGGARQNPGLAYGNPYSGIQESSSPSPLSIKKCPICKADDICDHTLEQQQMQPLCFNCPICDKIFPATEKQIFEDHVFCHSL
Test: co-IP; HEK293T co-transfected for 48 h with pcDNA-FLAG-NDP52 and a GFP construct; lysis buffer 150 mM NaCl, 10 mM Tris pH 7.4, 1 mM EDTA, 1% Triton X-100, 0.5% NP-40; FLAG mouse antibody overnight at 4°C, protein G magnetic beads; immunoblot

B1: GFP-tagged Pat1b (protein, UniProt Q86TB9 1-770)
chain: MFRYESLEDCPLDEDEDAFQGLGEEDEEIDQFNDDTFGSGAVDDDWQEAHERLAELEEKLPVAVNEQTGNGERDEMDLLGDHEENLAERLSKMVIENELEDPAIMRAVQTRPVLQPQPGSLNSSIWDGSEVLRRIRGPLLAQEMPTVSVLEYALPQRPPQGPEDDRDLSERALPRRSTSPIIGSPPVRAVPIGTPPKQMAVPSFTQQILCPKPVHVRPPMPPRYPAPYGERMSPNQLCSVPNSSLLGHPFPPSVPPVLSPLQRAQLLGGAQLQPGRMSPSQFARVPGFVGSPLAAMNPKLLQGRVGQMLPPAPGFRAFFSAPPSATPPPQQHPPGPGPHLQNLRSQAPMFRPDTTHLHPQHRRLLHQRQQQNRSQHRNLNGAGDRGSHRSSHQDHLRKDPYANLMLQREKDWVSKIQMMQLQSTDPYLDDFYYQNYFEKLEKLSAAEEIQGDGPKKERTKLITPQVAKLEHAYKPVQFEGSLGKLTVSSVNNPRKMIDAVVTSRSEDDETKEKQVRDKRRKTLVIIEKTYSLLLDVEDYERRYLLSLEEERPALMDDRKHKICSMYDNLRGKLPGQERPSDDHFVQIMCIRKGKRMVARILPFLSTEQAADILMTTARNLPFLIKKDAQDEVLPCLLSPFSLLLYHLPSVSITSLLRQLMNLPQSAATPALSNPHLTAVLQNKFGLSLLLILLSRGEDLQSSDPATESTQNNQWTEVMFMATRELLRIPQAALAKPISIPTNLVSLFSRYVDRQKLNLLETKLQLVQGIR
B1 was tested, and the binding was “binds”.
